In this assay the target is RelA (P65) (rat (endogenous in PC12)) (UniProt Q7TQN4). Description: co-IP; endogenous proteins in PC12 lysate; RIPA buffer (50 mM Tris pH 7.4, 150 mM NaCl, 1% NP-40, 0.25% sodium deoxycholate), protein A/G-sepharose, 4°C; cells treated with 0.6 mmol/L CoCl2 or 0.4 mmol/L H2O2 for 24h, with NC, miR-19a mimics or miR-19a mimics plus Flag-CYLD.

The chains behind the UniProt entries cited, without tags or fusion partners.
UniProt Q7TQN4: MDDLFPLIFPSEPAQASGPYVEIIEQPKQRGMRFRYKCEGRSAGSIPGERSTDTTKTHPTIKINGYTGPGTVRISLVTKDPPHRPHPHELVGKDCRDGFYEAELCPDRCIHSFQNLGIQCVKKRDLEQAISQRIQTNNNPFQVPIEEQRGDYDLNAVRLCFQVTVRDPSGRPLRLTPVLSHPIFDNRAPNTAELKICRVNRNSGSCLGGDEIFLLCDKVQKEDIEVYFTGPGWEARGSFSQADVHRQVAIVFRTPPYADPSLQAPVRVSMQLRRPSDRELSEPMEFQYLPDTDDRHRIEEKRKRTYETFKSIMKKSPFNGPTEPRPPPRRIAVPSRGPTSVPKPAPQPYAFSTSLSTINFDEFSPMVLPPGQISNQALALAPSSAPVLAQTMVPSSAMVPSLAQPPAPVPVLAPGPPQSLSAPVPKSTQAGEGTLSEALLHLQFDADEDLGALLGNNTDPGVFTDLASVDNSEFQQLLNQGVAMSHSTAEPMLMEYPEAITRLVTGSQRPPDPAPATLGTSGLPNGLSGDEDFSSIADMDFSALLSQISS
UniProt Q63746: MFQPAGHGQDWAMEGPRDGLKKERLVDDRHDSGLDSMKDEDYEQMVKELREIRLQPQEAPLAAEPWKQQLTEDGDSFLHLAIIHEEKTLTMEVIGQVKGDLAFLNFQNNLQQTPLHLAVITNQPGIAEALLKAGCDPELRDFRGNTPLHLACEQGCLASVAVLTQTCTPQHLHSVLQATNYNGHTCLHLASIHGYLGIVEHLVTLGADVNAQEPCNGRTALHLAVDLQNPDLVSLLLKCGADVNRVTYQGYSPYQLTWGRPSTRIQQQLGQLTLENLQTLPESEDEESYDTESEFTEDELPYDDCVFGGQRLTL

These are yes or no findings as the source states them, for the method shown. In cells and extracts the contact can be indirect. Some entries that bind do so weakly or less than the wild type.

Regarding IκBα (from UniProt Q63746 1-314), the binding entry is “binds”.

(Values after paper PMC5642611.)
